Data as given in patent US20250258165A1 (OSAKA UNIVERSITY, published 2025).
No constants are given. Whether binding was seen depends on the method and setting. Some results given as binding are weak or reduced against the parent protein; the word gives no strength.

Sequences of proteins named here, by UniProt entry; tags and fusion partners are left off. Residues count along the entry.
UniProt B2RWS6, residues 2-2412: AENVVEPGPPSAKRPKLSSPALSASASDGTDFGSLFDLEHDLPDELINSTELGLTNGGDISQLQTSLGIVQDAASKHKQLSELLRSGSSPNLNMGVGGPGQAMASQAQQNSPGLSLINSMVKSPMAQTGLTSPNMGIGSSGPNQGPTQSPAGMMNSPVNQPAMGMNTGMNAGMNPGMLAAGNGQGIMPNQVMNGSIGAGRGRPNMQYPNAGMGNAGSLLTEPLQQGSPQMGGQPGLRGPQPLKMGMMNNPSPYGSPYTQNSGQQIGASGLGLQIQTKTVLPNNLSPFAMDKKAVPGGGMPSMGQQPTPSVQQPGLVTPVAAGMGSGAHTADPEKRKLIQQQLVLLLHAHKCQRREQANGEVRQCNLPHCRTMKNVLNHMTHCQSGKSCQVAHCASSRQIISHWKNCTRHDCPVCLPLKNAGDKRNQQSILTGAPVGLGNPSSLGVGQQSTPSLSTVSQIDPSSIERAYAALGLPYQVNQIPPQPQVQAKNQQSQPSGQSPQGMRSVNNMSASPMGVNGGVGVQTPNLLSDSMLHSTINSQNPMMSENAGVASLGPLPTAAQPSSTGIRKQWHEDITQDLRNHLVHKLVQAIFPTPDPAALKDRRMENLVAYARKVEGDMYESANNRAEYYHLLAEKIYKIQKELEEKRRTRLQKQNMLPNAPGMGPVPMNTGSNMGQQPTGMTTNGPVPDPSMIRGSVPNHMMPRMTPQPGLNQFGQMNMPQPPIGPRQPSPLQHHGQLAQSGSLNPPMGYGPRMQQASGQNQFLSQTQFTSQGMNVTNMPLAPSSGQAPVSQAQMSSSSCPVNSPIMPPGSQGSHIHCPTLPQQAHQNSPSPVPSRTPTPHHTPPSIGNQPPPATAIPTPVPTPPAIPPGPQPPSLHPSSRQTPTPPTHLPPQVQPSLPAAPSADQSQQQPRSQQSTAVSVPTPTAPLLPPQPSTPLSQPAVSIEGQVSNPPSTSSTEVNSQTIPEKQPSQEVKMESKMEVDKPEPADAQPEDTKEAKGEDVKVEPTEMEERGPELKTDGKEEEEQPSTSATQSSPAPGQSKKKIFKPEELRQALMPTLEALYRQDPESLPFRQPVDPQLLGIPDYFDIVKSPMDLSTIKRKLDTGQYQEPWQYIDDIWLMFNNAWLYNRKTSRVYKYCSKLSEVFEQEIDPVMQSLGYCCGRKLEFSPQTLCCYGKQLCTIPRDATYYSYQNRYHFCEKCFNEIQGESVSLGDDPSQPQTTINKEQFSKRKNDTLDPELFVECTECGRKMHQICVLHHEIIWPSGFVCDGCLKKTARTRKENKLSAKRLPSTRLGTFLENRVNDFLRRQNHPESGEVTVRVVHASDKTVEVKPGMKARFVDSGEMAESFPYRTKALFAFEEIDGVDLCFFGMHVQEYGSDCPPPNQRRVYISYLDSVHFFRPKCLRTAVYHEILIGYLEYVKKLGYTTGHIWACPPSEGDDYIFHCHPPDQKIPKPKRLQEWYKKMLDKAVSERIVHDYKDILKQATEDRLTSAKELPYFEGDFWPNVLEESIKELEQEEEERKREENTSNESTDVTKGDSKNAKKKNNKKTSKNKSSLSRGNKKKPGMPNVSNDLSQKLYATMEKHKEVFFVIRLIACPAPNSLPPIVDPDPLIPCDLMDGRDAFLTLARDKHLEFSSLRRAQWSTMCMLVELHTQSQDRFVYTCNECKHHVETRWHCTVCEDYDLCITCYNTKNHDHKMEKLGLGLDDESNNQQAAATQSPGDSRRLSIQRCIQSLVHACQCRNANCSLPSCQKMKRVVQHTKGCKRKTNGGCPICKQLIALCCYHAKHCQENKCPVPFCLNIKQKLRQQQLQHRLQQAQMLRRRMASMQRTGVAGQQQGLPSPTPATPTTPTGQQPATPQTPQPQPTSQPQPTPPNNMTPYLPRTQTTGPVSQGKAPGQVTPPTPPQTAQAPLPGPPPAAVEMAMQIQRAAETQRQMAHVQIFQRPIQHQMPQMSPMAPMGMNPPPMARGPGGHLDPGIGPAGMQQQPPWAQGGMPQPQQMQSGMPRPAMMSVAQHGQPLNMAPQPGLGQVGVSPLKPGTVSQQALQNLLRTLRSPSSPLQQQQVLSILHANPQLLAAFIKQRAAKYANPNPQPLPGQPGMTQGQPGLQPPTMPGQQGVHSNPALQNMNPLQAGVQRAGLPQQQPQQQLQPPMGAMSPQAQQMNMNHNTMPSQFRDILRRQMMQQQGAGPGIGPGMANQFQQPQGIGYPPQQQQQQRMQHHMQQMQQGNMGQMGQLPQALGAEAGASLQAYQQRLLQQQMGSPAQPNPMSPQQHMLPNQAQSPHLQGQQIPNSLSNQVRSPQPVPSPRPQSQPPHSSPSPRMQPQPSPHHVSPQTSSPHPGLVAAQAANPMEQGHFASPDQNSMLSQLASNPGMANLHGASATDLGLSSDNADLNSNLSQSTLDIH
UniProt P01108: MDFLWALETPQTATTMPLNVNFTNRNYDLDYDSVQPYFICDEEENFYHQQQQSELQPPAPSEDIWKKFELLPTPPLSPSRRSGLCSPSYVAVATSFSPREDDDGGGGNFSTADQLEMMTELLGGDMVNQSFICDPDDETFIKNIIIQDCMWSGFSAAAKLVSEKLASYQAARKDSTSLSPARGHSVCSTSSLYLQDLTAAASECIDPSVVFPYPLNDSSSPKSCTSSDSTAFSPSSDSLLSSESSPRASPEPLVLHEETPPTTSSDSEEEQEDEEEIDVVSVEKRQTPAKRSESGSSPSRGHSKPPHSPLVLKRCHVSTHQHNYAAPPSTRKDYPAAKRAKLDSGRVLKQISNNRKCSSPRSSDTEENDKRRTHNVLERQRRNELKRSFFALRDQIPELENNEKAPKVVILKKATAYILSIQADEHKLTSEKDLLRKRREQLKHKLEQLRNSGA

B1: Lamin B1 (other, mouse, UniProt P14733 2-585, looked up)
chain: ATATPVQQQRAGSRASAPATPLSPTRLSRLQEKEELRELNDRLAVYIDKVRSLETENSALQLQVTEREEVRGRELTGLKALYETELADARRALDDTARERAKLQIELGKFKAEHDQLLLNYAKKESDLSGAQIKLREYEAALNSKDAALATALGDKKSLEGDLEDLKDQIAQLEASLSAAKKQLADETLLKVDLENRCQSLTEDLEFRKNMYEEEINETRRKHETRLVEVDSGRQIEYEYKLAQALHEMREQHDAQVRLYKEELEQTYHAKLENARLSSEMNTSTVNSAREELMESRMRIESLSSQLSNLQKESRACLERIQELEDMLAKERDNSRRMLSDREREMAEIRDQMQQQLSDYEQLLDVKLALDMEISAYRKLLEGEEERLKLSPSPSSRVTVSRASSSRSVRTTRGKRKRVDVEESEASSSVSISHSASATGNVCIEEIDVDGKFIRLKNTSEQDQPMGGWEMIRKIGDTSVSYKYTSRYVLKAGQTVTVWAANAGVTASPPTDLIWKNQNSWGTGEDVKVILKNSQGEEVAQRSTVFKTTIPEEEEEEEEEPIGVAVEEERFHQQGAPRASNKSC
notes: whole, on cells; Endogenous protein inside fixed, permeabilised LPS-stimulated mouse spleen B cells; It was detected through a DNA barcode-labeled antibody (clone L-5)

Legend:
p300 = target: T1, p300 (mouse, UniProt B2RWS6 2-2412); assay: joining PCR of DNA barcode-labeled antibodies in hydrogel with NGS; LPS-stimulated mouse spleen B cells
T1 construct: whole, on cells; Endogenous protein inside fixed, permeabilised LPS-stimulated mouse spleen B cells; It was detected through a DNA barcode-labeled antibody (clone RW128)

c-Myc (mouse) = c-Myc (mouse) (UniProt P01108); assay: as above

Molecule | binding (p300) | binding (c-Myc (mouse))
c-Myc (from UniProt P01108 1-454) | binds | –
B1 | – | binds
